In article doi:10.1101/2020.07.23.217679:
No constants are given. Whether binding was seen depends on the method and setting. Binding calls can cover weak binding; strength is not graded here.

Target: T1, PAR-6 PDZ domain (C. elegans) (UniProt Q9NAN2)
T1 sequence: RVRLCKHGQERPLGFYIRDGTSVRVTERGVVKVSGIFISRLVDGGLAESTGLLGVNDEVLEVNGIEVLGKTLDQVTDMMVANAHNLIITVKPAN
Experiment: two-hybrid

## NOCA-1d, full-length (from UniProt G5EEK3-4)
  binding: binds
